PubChem BioAssay AID1159584, Peter MacCallum Cancer Centre | 2016

Assay: 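Genes whose loss is lethal only together with E-cadherin loss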 (primary screen)
Cell system: human MCF10A breast epithelial cells, parental and CDH1-null
Reagent: siRNA against human genes
Measurement: 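ATP luminescence (CellTiter-Glo) viability per line relative to mean mock wells over all plates, and the ratio of CDH1-null to parental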
Scale: CDH1-null / parental viability ratio: higher = CDH1-null cells survive relatively better than parental; CDH1-null viability vs mock: higher = more viable CDH1-null cells
The whole screen tested about 18,000 reagents; below is a part drawn at random. Not all columns of the deposit are shown. Not given: the amount of reagent, the time to read-out.

gene symbol | CDH1-null / parental viability ratio | CDH1-null viability vs mock (fraction of mock)
STIP1 | 1.13 | 1.03
PACSIN3 | 0.98 | 0.82
ALLC | 0.93 | 0.91
GGT6 | 0.79 | 0.38
PLXNA2 | 1.05 | 0.6
OAF | 1.18 | 0.72
E2F8 | 0.95 | 0.8
F11R | 1.05 | 0.86
ACSM2A | 0.88 | 0.56
TMED2 | 0.84 | 0.74
NIBAN3 | 0.93 | 0.65
C8A | 0.74 | 0.52
MRNIP | 1.1 | 0.46
SLC16A3 | 0.62 | 0.4
PPP1R10 | 0.8 | 0.63
CD59 | 1.4 | 1.08
OVOL2 | 1.03 | 0.6
GDA | 1.12 | 0.84
COX6C | 1.05 | 0.87
OTULINL | 0.89 | 0.76
SPARC | 0.86 | 0.99
KLHL14 | 1.19 | 0.88
OSR1 | 1.13 | 0.94
MUC7 | 1.12 | 0.76
ZNF493 | 0.81 | 0.7
TFE3 | 0.98 | 0.98
TBCEL | 1.19 | 0.93
TROAP | 1 | 0.9
TJP1 | 1.06 | 1.06
UNC13B | 0.94 | 0.9
C22orf39 | 0.87 | 0.66
POLR3H | 0.85 | 0.61
RTP5 | 1.14 | 0.56
NUDCD3 | 0.74 | 0.57
KCNK6 | 1.34 | 0.82
PAPPA2 | 1.17 | 0.91
PLEKHG2 | 0.65 | 0.52
ATP6V0B | 1.34 | 0.78
PLCD1 | 0.78 | 0.7
MAN1A1 | 1.3 | 1.14
TMEM60 | 1.12 | 0.56
OR7D4 | 0.84 | 0.74
LY6D | 0.97 | 0.74
SLC5A7 | 0.76 | 0.62
KYAT1 | 1.06 | 1
SEC63 | 0.82 | 0.91

Ordered by “CDH1-null viability vs mock (fraction of mock)” (low to high): 8 of the entries above.
gene symbol | CDH1-null / parental viability ratio | CDH1-null viability vs mock (fraction of mock)
ZNF493 | 0.81 | 0.7
MUC7 | 1.12 | 0.76
KLHL14 | 1.19 | 0.88
TROAP | 1 | 0.9
TBCEL | 1.19 | 0.93
OSR1 | 1.13 | 0.94
TFE3 | 0.98 | 0.98
TJP1 | 1.06 | 1.06
